Assay results from doi:10.1101/2021.03.26.437179 (bioRxiv, 2021).
No constants are given. Whether binding was seen depends on the method and setting. For some of these results: A result given as binding can be weak or reduced; the word gives no strength. Sequences can lack the tags named with a protein. For some of these results: In cells and extracts the contact can be indirect. Values belong to the substance of their own block, whether it stands above or below them.

Assays:
[1] = target: T1, PUB26-ccLUC (Arabidopsis thaliana) (UniProt Q9FXA4); experiment: split reporter
T1 sequence: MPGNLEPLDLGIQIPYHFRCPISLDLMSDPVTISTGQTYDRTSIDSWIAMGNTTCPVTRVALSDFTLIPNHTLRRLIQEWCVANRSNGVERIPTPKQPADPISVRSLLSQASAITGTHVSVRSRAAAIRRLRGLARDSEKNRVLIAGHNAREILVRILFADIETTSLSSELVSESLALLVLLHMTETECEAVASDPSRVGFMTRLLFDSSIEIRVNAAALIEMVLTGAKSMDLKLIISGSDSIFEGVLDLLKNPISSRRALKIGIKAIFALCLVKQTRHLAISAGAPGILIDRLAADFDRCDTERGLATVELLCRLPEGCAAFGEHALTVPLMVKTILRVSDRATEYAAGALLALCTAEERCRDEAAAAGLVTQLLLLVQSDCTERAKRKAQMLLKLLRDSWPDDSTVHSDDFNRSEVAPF

[2] = target: T2, PUB25-ccLUC (Arabidopsis thaliana) (UniProt Q9LT79); experiment: split reporter
T2 sequence: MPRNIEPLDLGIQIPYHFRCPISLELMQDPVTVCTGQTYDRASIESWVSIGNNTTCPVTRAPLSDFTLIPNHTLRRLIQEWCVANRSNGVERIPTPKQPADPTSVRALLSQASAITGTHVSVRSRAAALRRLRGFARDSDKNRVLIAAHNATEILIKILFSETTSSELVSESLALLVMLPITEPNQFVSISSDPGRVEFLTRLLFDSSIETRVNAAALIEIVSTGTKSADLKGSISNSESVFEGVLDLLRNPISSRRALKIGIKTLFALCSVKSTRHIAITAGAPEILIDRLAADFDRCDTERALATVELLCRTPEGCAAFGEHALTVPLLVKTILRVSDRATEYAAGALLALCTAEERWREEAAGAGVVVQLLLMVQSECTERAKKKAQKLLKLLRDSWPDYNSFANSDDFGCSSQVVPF

[3] = target: T3, BD-PUB25 (Arabidopsis thaliana) (UniProt Q9LT79); experiment: two-hybrid
T3 sequence: T2 sequence

[4] = target: T4, BD-PUB26 (Arabidopsis thaliana) (UniProt Q9FXA4); experiment: two-hybrid
T4 sequence: T1 sequence

GST-PUB25 = target: T5, GST-PUB25 (Arabidopsis thaliana, UniProt Q9LT79 1-421); experiment: pull-down
T5 sequence (looked up): T2 sequence

GST-PUB26 [5] = target: T6, GST-PUB26 (Arabidopsis thaliana, UniProt Q9FXA4 1-421); experiment: pull-down
T6 sequence (looked up): T1 sequence

GST-PUB26 [6] = target: T6, GST-PUB26; experiment: SPR
[7] = target: T7, PUB26-GFP (Arabidopsis thaliana) (UniProt Q9FXA4); experiment: co-IP
T7 sequence: T1 sequence

[8] = target: T8, PUB25-GFP (Arabidopsis thaliana) (UniProt Q9LT79); experiment: co-IP
T8 sequence: T2 sequence

HIS-PUB26 = target: T9, HIS-PUB26 (Arabidopsis thaliana, UniProt Q9FXA4 1-421); experiment: pull-down
T9 sequence (looked up): T1 sequence

[9] = target: T10, BD-At3g44110 (Arabidopsis) (UniProt Q94AW8); experiment: two-hybrid
T10 sequence: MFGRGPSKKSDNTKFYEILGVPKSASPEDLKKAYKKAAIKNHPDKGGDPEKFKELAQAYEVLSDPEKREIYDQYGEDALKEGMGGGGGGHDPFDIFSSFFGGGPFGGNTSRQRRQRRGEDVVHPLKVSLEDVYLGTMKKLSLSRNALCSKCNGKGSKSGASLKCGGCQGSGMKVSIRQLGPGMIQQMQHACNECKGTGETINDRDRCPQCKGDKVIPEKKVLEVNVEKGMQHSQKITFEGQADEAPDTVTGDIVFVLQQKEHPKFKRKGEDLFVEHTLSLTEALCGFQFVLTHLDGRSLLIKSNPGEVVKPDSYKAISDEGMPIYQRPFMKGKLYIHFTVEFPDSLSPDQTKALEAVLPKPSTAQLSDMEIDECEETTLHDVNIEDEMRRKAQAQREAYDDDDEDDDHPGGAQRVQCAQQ

binding [1]: binds
binding [2]: binds
Substance: VDAL-GZnLUC (Verticillium dahliae)

binding [3]: binds
binding [4]: binds
Substance: VDAL (60-297) (Verticillium dahliae) (domain or fragment)

binding (GST-PUB25): binds
binding (GST-PUB26 [5]): binds
binding (GST-PUB26 [5]; record 2): binds
binding (GST-PUB26 [6]): binds
Substance: VDAL-HIS (from UniProt Q6QUX8)

binding [7]: binds
binding [8]: binds
Substance: VDAL-MYC (Verticillium dahliae)

binding (HIS-PUB26): binds
Substance: GST-VDAL (Verticillium dahliae)

binding [3]: no binding
binding [4]: binds
Substance: VDAL (1-59) (Verticillium dahliae) (domain or fragment)

binding [9]: no binding
binding [3]: binds
binding [4]: binds
Substance: AD-VDAL (Verticillium dahliae)
